Experimental data published in doi:10.1101/717769.
Where two headings read alike, the source gives them in different places. Results are given in words; binding and its absence hold for the method and conditions named. In cells and extracts the contact can be indirect. Some results given as binding are weak or reduced against the parent protein; the word gives no strength.

By UniProt entry, the sequences of proteins in these tests, tags left out.
UniProt P11171: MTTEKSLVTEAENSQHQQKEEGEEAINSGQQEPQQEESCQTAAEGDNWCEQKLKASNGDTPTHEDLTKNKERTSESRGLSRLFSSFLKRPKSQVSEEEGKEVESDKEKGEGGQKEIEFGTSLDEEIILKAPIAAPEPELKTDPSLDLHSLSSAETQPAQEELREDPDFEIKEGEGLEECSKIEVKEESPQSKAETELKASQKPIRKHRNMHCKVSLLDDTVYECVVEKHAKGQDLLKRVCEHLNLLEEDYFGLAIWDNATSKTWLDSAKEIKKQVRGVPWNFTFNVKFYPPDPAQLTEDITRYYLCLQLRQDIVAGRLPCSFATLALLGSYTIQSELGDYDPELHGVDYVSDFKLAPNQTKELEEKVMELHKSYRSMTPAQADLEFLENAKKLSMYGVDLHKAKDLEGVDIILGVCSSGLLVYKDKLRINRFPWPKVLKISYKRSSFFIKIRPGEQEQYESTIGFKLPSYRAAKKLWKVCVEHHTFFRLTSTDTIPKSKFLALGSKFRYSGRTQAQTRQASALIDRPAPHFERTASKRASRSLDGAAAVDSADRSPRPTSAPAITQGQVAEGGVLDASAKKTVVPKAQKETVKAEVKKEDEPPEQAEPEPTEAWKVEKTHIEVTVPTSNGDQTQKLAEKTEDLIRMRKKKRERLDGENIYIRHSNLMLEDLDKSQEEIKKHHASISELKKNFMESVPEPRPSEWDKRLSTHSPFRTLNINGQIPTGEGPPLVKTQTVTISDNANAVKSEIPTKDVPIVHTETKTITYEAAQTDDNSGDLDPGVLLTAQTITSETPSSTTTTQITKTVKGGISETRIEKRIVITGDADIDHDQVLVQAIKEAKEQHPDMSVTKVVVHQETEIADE
UniProt P35241: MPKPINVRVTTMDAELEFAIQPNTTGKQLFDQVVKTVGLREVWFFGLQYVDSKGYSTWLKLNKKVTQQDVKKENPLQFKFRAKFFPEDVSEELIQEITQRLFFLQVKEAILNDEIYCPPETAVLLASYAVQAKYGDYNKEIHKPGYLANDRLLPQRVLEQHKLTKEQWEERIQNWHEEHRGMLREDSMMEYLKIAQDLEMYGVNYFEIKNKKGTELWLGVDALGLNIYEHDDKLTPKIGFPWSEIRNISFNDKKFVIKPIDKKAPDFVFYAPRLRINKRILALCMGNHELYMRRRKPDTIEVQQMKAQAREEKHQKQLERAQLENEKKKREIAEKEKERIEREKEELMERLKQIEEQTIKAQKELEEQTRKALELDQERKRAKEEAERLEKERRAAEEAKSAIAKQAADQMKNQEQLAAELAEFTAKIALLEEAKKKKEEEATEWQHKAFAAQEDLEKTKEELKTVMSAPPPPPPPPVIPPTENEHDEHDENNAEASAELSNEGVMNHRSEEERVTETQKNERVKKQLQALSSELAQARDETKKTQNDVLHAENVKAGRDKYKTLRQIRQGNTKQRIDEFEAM
UniProt P26038: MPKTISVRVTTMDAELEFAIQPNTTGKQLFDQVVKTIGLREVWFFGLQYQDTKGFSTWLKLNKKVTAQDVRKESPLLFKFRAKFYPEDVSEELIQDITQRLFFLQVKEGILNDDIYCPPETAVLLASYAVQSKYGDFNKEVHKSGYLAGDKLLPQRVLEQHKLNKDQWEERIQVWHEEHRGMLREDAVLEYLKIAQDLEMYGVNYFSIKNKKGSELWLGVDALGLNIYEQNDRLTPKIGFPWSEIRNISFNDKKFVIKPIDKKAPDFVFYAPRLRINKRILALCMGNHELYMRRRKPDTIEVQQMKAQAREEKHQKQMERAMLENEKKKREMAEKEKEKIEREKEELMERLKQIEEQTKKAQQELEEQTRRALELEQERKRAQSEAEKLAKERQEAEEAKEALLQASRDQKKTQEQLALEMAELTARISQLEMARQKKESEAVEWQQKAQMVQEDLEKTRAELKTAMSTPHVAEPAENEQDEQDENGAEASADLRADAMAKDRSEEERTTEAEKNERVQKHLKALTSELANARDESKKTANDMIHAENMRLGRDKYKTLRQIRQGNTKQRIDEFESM
UniProt O14646: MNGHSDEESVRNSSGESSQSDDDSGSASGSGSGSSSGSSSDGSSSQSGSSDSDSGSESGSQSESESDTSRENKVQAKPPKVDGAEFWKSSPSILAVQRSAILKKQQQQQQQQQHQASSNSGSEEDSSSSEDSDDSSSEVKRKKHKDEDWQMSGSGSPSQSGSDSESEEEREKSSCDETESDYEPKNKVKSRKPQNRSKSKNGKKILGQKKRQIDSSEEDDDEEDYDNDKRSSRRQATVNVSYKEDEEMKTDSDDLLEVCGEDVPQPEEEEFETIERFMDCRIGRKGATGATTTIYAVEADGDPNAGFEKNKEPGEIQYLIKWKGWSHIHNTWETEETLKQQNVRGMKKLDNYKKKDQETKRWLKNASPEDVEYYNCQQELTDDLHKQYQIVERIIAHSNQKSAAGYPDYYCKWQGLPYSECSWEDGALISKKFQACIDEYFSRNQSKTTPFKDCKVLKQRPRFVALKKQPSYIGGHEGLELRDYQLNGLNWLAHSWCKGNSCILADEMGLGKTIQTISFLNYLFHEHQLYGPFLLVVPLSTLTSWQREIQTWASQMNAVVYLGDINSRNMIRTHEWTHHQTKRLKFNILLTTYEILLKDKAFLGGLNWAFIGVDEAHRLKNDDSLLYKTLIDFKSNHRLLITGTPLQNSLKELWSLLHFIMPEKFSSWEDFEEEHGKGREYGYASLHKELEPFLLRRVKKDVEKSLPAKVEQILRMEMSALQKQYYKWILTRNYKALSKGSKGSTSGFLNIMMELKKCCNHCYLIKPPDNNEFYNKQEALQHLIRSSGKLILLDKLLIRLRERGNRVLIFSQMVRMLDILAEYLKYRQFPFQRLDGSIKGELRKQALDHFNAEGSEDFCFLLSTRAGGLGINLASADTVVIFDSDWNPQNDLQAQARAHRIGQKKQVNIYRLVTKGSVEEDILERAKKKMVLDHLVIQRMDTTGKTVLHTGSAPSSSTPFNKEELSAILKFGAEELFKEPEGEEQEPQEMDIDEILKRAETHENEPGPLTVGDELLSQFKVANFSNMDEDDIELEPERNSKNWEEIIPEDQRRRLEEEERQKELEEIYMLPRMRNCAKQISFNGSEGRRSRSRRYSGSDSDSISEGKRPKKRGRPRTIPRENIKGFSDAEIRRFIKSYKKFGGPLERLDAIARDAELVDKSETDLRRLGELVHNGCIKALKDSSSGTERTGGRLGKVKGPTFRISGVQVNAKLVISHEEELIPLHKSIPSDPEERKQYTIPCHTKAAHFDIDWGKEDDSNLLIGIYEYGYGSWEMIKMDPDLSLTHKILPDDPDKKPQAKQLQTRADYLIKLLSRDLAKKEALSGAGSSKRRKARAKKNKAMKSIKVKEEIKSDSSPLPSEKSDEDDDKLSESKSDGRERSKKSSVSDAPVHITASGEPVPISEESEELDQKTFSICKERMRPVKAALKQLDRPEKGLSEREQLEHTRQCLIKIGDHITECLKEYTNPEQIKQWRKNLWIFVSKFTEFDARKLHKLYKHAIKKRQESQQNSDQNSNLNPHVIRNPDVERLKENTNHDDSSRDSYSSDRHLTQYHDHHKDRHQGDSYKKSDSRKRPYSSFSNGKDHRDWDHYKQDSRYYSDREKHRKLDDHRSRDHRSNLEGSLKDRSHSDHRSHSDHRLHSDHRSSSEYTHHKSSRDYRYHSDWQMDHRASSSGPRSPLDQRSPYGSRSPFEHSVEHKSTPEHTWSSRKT
UniProt Q9Y4B6: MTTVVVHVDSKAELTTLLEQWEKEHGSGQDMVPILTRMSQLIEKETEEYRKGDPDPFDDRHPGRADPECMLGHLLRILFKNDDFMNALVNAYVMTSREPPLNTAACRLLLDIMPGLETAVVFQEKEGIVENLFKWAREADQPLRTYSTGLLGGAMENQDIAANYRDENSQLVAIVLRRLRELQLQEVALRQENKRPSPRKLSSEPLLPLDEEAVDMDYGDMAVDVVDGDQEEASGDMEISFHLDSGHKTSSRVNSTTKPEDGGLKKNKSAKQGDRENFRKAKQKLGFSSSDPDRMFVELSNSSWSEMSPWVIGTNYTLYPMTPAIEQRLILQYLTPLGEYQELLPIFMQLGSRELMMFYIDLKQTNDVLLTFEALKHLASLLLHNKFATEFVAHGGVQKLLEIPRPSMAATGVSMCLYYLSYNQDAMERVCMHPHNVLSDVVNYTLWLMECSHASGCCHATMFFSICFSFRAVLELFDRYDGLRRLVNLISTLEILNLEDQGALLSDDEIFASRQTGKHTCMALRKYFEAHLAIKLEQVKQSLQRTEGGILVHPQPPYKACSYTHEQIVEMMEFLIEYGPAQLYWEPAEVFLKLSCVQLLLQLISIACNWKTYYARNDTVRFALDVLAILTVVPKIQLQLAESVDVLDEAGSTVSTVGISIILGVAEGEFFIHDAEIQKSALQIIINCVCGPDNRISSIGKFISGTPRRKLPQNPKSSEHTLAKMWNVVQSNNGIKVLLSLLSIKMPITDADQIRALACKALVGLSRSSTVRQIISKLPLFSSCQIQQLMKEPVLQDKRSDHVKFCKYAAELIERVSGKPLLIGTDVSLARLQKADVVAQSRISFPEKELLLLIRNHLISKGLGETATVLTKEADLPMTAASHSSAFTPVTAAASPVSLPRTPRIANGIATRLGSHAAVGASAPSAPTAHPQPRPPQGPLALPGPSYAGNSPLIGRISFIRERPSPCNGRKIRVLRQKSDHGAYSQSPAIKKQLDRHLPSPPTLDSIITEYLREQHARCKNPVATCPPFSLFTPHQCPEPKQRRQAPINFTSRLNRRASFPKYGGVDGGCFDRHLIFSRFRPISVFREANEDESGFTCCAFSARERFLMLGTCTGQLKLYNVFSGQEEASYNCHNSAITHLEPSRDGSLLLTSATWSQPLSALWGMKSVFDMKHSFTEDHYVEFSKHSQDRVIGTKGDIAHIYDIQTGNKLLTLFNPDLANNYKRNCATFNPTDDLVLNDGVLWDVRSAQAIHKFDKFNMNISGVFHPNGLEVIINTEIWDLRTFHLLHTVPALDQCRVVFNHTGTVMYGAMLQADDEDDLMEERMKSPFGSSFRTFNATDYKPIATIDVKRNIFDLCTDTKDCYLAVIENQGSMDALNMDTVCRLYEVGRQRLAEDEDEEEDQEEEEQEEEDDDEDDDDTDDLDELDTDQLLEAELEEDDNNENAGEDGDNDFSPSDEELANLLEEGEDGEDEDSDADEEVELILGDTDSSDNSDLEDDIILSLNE
UniProt Q8IZL8: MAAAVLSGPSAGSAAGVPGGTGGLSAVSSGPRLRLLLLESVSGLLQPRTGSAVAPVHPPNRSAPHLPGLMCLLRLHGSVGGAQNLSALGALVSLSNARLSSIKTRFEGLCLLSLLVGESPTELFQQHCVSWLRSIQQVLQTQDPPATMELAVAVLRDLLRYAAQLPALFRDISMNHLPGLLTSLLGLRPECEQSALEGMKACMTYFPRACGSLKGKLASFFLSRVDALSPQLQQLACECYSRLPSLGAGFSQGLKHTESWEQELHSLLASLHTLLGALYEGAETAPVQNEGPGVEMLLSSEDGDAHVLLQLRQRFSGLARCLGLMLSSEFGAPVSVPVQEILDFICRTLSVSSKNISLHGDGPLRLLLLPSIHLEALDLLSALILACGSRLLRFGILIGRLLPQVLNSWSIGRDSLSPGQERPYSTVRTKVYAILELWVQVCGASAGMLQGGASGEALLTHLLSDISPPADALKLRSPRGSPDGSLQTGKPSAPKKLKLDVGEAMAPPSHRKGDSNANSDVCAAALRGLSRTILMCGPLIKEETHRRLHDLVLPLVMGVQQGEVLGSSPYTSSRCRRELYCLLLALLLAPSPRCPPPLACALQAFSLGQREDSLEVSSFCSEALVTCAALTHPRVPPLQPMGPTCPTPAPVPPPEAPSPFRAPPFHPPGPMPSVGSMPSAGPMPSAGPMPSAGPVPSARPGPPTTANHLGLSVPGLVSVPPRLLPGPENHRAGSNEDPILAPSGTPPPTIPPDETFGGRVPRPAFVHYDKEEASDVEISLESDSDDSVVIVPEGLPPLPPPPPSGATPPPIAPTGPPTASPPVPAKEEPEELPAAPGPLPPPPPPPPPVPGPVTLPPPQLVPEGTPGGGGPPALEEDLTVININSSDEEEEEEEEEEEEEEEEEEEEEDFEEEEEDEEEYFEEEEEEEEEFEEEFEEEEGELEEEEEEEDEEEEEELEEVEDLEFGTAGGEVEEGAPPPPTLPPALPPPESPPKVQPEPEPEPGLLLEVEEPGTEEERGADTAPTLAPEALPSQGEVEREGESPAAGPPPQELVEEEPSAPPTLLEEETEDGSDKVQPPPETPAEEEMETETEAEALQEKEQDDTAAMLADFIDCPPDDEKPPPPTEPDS

Columns and labels:
[1] = target: Endogenous Merlin (human (endogenous in IOMM-Lee)) (UniProt P35240); test: co-IP
[2] = target: Flag-erythrocyte membrane protein band 4.1 (EPB41) (UniProt P11171); test: co-IP
Flag-Ezrin = Flag-Ezrin (UniProt P15311); test: co-IP
Flag-Radixin = Flag-Radixin (UniProt P35241); test: co-IP
Flag-Moesin = Flag-Moesin (UniProt P26038); test: co-IP
Flag-Merlin isoform 1 = Flag-Merlin isoform 1 (UniProt P35240); test: co-IP
Flag-Merlin [3] = target: Flag-Merlin (UniProt P35240); test: co-IP
GST-Merlin (full length) = GST-Merlin (full length) (UniProt P35240); test: pull-down
[4] = target: Recombinant GST-Merlin FERM domain (UniProt P35240); test: pull-down
[5] = target: Recombinant GST-Merlin L46R (UniProt P35240); test: pull-down
[6] = target: Recombinant GST-Merlin wild type (UniProt P35240); test: pull-down
Flag-Merlin L234R = Flag-Merlin L234R (UniProt P35240); test: co-IP
Flag-Merlin ΔF118 = Flag-Merlin ΔF118 (UniProt P35240); test: co-IP
Flag-Merlin [7] = target: Flag-Merlin (UniProt P35240); test: co-IP; remark: listed apart in the source

| binding [1] | binding [2] | binding (Flag-Ezrin) | binding (Flag-Radixin) | binding (Flag-Moesin) | binding (Flag-Merlin isoform 1) | binding (Flag-Merlin [3]) | binding (GST-Merlin (full length)) | binding [4] | binding [5] | binding [6] | binding (Flag-Merlin L234R) | binding (Flag-Merlin ΔF118) | binding (Flag-Merlin [7]) | Substance |
| --- | --- | --- | --- | --- | --- | --- | --- | --- | --- | --- | --- | --- | --- | --- |
| binds | no binding | no binding | no binding | no binding | binds | binds | binds | binds | no binding | binds |  |  |  | CHD1 (endogenous) (from UniProt O14646 1-1710) |
| binds |  |  |  |  |  | binds |  | binds |  | binds | no binding | binds | binds | VPRBP/DCAF1 (endogenous) (from UniProt Q9Y4B6 1-1507) |
|  | no binding | no binding | no binding | no binding | binds |  |  |  |  |  |  |  |  | PELP1 (endogenous) (from UniProt Q8IZL8 1-1130) |
